The target in test [1] is native DNA polymerase δ subunit p125 of HeLa cells (human (endogenous in HeLa)) (UniProt P28340). As to the kind of experiment: immunoaffinity chromatography with Western blot; lysate of HeLa cells (untreated, or UV-C 20 J/m^2 and harvested 4 hours later) on anti-p125 agarose at 4°C, wash TGEE with 0.1 M NaCl, elution 0.4 M NaCl and 30% ethylene glycol; fractions blotted for p12, p125, p50 and p68. On the technique in general: Immunoblotting shows a protein as a band on a membrane.

The chains behind the UniProt entries cited, without tags or fusion partners. Where a name states a change or a piece, a line headed by the entry shows the natural chain unless it says otherwise.
UniProt P28340: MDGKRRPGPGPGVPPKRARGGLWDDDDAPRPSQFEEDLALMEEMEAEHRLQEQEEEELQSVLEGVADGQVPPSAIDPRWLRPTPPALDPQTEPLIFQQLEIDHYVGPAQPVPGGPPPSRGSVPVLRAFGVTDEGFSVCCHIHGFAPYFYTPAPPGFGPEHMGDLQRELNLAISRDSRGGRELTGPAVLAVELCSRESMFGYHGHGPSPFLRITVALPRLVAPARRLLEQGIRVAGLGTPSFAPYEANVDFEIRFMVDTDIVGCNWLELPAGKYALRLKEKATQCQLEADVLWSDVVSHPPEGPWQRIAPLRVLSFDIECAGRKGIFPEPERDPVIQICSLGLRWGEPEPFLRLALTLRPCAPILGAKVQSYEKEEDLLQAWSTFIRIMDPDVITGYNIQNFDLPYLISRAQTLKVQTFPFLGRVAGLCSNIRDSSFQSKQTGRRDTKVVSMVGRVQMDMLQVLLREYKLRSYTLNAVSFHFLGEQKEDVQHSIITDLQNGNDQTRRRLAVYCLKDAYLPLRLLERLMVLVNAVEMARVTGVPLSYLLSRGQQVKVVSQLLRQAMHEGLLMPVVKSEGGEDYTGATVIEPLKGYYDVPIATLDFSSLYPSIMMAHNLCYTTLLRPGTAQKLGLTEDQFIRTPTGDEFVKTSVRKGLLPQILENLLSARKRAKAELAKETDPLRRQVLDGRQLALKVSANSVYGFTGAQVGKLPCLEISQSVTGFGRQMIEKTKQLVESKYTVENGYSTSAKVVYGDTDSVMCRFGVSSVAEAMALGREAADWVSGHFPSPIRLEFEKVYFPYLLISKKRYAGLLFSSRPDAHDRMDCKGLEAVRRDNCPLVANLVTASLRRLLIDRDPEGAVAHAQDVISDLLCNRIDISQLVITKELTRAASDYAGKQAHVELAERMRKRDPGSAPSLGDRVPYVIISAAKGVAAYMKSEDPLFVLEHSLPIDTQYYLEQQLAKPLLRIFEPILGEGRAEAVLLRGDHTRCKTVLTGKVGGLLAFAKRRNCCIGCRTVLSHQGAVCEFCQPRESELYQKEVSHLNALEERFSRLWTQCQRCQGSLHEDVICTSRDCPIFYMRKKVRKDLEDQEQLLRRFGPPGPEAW
UniProt P49005: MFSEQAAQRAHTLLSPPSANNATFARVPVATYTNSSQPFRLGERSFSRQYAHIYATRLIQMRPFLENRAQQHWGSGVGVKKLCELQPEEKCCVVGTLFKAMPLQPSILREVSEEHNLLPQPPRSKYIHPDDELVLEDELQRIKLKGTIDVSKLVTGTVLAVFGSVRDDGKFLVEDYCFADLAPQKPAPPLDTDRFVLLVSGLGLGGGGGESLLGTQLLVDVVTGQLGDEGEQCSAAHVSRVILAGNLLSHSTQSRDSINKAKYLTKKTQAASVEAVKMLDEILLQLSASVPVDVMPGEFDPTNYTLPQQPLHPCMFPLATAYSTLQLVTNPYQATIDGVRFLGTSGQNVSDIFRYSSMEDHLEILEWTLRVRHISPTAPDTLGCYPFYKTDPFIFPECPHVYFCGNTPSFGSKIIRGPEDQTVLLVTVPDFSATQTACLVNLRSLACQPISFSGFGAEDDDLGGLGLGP

For test [2], the target named is human DNA polymerase δ catalytic subunit p125 (human) (UniProt P28340). As to the kind of experiment: immunoaffinity chromatography and Mono Q co-purification; subunits co-expressed in Sf9 from a single MultiBac baculovirus; lysate on 78F5 anti-p125 agarose, wash TGEE with 0.1 M NaCl, elution 0.4 M NaCl and 30% ethylene glycol; Mono Q gradient 0.1 to 1 M NaCl; 12.5% SDS-PAGE, silver staining.

Results are given in words; binding and its absence hold for the method and conditions named. Some entries that bind do so weakly or less than the wild type.

As for “native DNA polymerase δ subunit p50 of HeLa cells (from UniProt P49005 1-469)”, in test [1], the binding result is reported as “binds”.

Turning to “human DNA polymerase δ subunit p50 (from UniProt P49005 1-469)”, in test [2], the binding result is on record as “binds”.
